Numbering of substitutions follows the chain as printed. Results are given in words; binding and its absence hold for the method and conditions named. Some results given as binding are weak or reduced against the parent protein; the word gives no strength.
T1: human [202-500]-mouse chimeric EL (mouse; human) (UniProt Q9WVG5)
T1 sequence: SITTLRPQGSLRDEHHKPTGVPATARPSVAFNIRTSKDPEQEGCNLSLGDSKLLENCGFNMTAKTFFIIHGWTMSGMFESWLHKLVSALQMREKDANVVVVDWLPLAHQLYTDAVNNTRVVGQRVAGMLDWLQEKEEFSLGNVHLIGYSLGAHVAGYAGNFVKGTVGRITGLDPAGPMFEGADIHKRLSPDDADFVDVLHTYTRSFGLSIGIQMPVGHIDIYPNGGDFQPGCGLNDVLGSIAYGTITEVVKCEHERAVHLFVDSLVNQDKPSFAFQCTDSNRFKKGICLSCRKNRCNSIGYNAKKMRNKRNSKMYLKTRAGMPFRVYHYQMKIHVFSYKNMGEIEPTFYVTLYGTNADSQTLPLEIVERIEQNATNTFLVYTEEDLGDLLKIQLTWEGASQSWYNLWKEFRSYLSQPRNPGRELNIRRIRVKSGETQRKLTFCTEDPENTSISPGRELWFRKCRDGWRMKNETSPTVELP

B1: 7D4 (antibody, mouse IgG1, V domains shown)
VH: QIQLVQSGPELKKPGETVKISCKASGYTFTNYGMNWVKQAPGKDLKWMGWINTYSGVPTYADDFKGRFAFSLETSASTAYLQINNLKNEDTATYFCARFSYYGRHYFDYWGQGTTLTVSS
VL: DIVLTQSPASLAVSLGQRATISCKASQSVDYDGDSYMNWYQQKPGQPPQLLIYAASNLGSGIPARFSGSGSGTDFTLNIHPVEEEDAATYYCHQSTDDPPWTFGGGTKLEIK
B2: 14A1 (antibody, mouse IgG1, V domains shown)
VH: B1 VH with D44G, L86F, T115A, V118A
VL: B1 VL with Q49K, G59K, H93Q, S95T
B3: 55A1 (antibody, mouse IgG2a, V domains shown)
VH: B1 VH with Q3H, D44G, D62G, F99R, S100G, H105R, Y109V, Q112T, L116V
VL: DIVLTQSPASLAVSLGQRATISCKASQSVDYDVDSYMHWYQQKPGQPPKLLIYAASNLASGIPARFSGGGSGTDFTLNIHPVEEEDVATYYCQQTIEDPPTFGGGTKLEIK
B4: 53A11 (antibody, mouse IgG2a, V domains shown)
VH: EVQLQQSGPELLKPGASVKISCKASGYTFTDYTMHWVKQSHGKSLEWIGGINPYYGGTTYNEKFKDKATLTVDKSSSTAYMELRSLTSEDSAVYYCAKGDYYGGSYNYWGQGTTLTVSS
VL: DIVLTQSLATLSVTPGDSVSLSCRASQDISNSLHWYQQKSHESPRLLIKYASQSISGIPSRFSGSGSGTDFTLSINSVETEDFGMYFCQQSNSWPYTFGGGTKLEIK
B5: 23H8 (antibody, mouse IgG2a, V domains shown)
VH: EVQLQQSGPELLKPGASVKISCKASGYTFTDNTIHWVKQSHGKSLEWIGHINPYYGGTNNNEKFKDKATLTVDKSSSTAYMELRSLTSEDSAIYYCARKGIYYSSPFDYWGQGTTLTVSS
VL: DIQMTQTTSSLSASLGDRVTISCRASQDINNYLNWYQQKPDGTVKLLISYTSKLHSGVPSRFSGSGSGTDYSLTISNLEREDFATYFCQQGNTLPFTFGSGTNLEIK
B6: 13B3 (antibody, mouse IgG2a, V domains shown)
VH: EVQLQQSGPELLKPGASVKISCKASGYTFTEYTMHWVKQSHGKSLEWIGSINPYYGGTSYNEKFKDKATLTVDKSSNTAYMEFRSLTSEDCAVYYCARYGNYVGYFDYWGQGTTLTVSS
VL: ENVLTQSPAIMSASLGEKVTMSCRASSSVHYMYWYQQKSDASPKLWIYYTSNLAPGVPDRFSGSGSGNSYSLTISSMEGEDAATYYCQQFTSSPYTFGGGTKLEIK
B7: 19E7 (antibody, mouse IgG2a, V domains shown)
VH: QVQLQQPGSVLVRPGASVKLSCKASGYTFTTYWMHWVKQRPGQGLEWIGEIHPYSGNNNNNEKFKGKATLTVDTSSSTAYVDLSRLTSEDSAVYYCARYDSNYVFAYWGQGTLVTVSA
VL: QIVLTQSPAIMSASPGEGVTITCSASSSVSYMHWFQQKPGTSPKLWIYSTSNLASGVPARFSGSGSGTSYSLTISRMEAEDAATYYCQQRDSYLTFGSGTKLEVK
B8: 16B3 (antibody, mouse IgG2a, V domains shown)
VH: DVKLVESGGGLVQPGGSLKLSCTASGFTFSGYTMSWVRQTPEKRLELVAEISFARDRAFYPDTVKGRFTISRDNAKNTLYLQMSSLKSEDTAMYYCTRLGGRNHDYWYFDVWGTGTTVTVSS
VL: DIVLTQSPTSLAVSPGQRATISCRASESVEYYGTSLMQWYQQKPGQRPQLLIYAASNVESGVPARFSGSGSGTDFSLNIHPVEEDDIAVYFCQQSWKVPFTFGSGTKLEIK
B9: 14E1 (antibody, mouse IgG1, V domains shown)
VH: QVQLQQSGAELVKPGASVRLSCKASGYTFTKYTIHWVKQRSGQGLEWIGWFYPGSDSIKYNEKFKDKATLTADKSSRTVYMELSRLTSEDSAVYFCARHEEYTNSLAYWGQGTLVTVSA
VL: B5 VL with N30S, K39Q, S49Y, K53R, R80Q, F83I, N92Y, F96W, S100G
B10: 16F6 (antibody, V domains shown)
VH: QVQLQQSGAELMKPGASVKISCKATGYTFSTYWIAWVKQRPGHGLEWIGEILPGSAKTKYNKKFKGKATFTADTSSNTAYMQLSSLTSEDSAVYYCAVYDYGADYWGQGTSVTVSS
VL: DIVMTQSHKFMSTSVGDRVSITCKASQDVYTAVAWYQQKPGQSPKLLIYSASYRFTGVPDRFTGSGAGTEFTFTINSVQAEDLAVYYCQQHYSIPRTFGGGTKLEIK

biological target: human [1-157]-mouse chimeric EL (human; mouse) (UniProt Q9WVG5); experiment: ELISA; Ab captured on anti-mouse IgG-Fc; EL heparin extract

binding, binds:
B1
B2
B3
B4
B5
B6

biological target: human [1-305]-mouse chimeric EL (human; mouse) (UniProt Q9WVG5); experiment: as above

binding, binds:
B7
B8
B9

biological target: T1, human [202-500]-mouse chimeric EL (mouse; human); experiment: as above

binding, binds:
B7
B8
B9

biological target: human [1-157]-mouse chimeric EL (human; mouse) (UniProt Q9WVG5); experiment: ELISA: antibody captured on anti-mouse IgG-Fc plate, EL heparin extract added, detection with biotin anti-C2-tag antibody and HRP-streptavidin, A450

binding, binds:
B1
B2
B3
B4
B5
B6

biological target: human [1-305]-mouse chimeric EL (human; mouse) (UniProt Q9WVG5); experiment: as above

binding, binds:
B7
B8
B10
B9

biological target: T1, human [202-500]-mouse chimeric EL (mouse; human); experiment: as above

binding, binds:
B7
B8
B9

— US20200071424A1
